Results deposited as PubChem BioAssay AID1259254 (NCATS, 2017).
The deposit covers about 59,000 reagents; shown is a part drawn at random. Over the whole deposit, about 1,550 (2.6%) were called active. 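G2 share is only a proxy for re-replication; each gene was hit by three separate siRNAs, and active genes were retested.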 The numbers tell different reagents against one gene apart. Further read-outs or replicates are left out here. Not given: the amount of reagent.

Aim: 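Finding genes that stop cells copying their DNA twice in one cycle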 (primary screen)
System: human HCT116 colorectal cancer cells
Knock-down reagent: single siRNA against human genes
Duration: 3 days
Read-out: 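Nuclei stained with Hoechst and imaged; cell-cycle phase assigned by DNA content; G2 share scaled per plate, non-targeting siRNA 0%, GMNN siRNA 100%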
Scale: G2 robust z-score and G2 cells, % of GMNN control: higher = more G2 cells, more excess DNA replication
Rule for the call: 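Active siRNAs have a G2 robust z of 5 or more median absolute deviations over the median, which in these data means about 38% or higher of GMNN control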

For LOC647983 (retired record) #1 the deposit lists G2 robust z-score -0.955; G2 cells, % of GMNN control -3.75; inactive.
Against LOC647983 (retired record) #2, the entry reads G2 robust z-score 4.06; G2 cells, % of GMNN control 31.6; inactive.
Against LOC647983 (retired record) #3, the values are G2 robust z-score -1; G2 cells, % of GMNN control -4.08; inactive.
ARHGEF4 (Rho guanine nucleotide exchange factor 4) #1 gave G2 robust z-score -0.263; G2 cells, % of GMNN control 1.11; inactive.
Against ARHGEF4 (Rho guanine nucleotide exchange factor 4) #2 the deposit lists G2 robust z-score 1.92; G2 cells, % of GMNN control 16.5; inactive.
ARHGEF4 (Rho guanine nucleotide exchange factor 4) #3 showed G2 robust z-score -0.632; G2 cells, % of GMNN control -1.48; inactive.
Against TCL6 (T cell leukemia/lymphoma 6) #1 the deposit lists G2 robust z-score 2.6; G2 cells, % of GMNN control 21.3; inactive.
With knock-down of TCL6 (T cell leukemia/lymphoma 6) #2, the record shows G2 robust z-score 1.15; G2 cells, % of GMNN control 11; inactive.
For TCL6 (T cell leukemia/lymphoma 6) #3 the deposit lists G2 robust z-score 0.797; G2 cells, % of GMNN control 8.58; inactive.
Against AKR7A2 (aldo-keto reductase family 7 member A2) #1, the entry reads G2 robust z-score 0.0152; G2 cells, % of GMNN control 3.07; inactive.
After knock-down of AKR7A2 (aldo-keto reductase family 7 member A2) #2, the record shows G2 robust z-score -0.097; G2 cells, % of GMNN control 2.28; inactive.
Knock-down of AKR7A2 (aldo-keto reductase family 7 member A2) #3 resulted in: G2 robust z-score 1.45; G2 cells, % of GMNN control 13.2; inactive.
C18orf63 (chromosome 18 open reading frame 63) #1 gave G2 robust z-score 0.769; G2 cells, % of GMNN control 8.38; inactive.
C18orf63 (chromosome 18 open reading frame 63) #2 gave G2 robust z-score 0.0462; G2 cells, % of GMNN control 3.29; inactive.
For C18orf63 (chromosome 18 open reading frame 63) #3, the entry reads G2 robust z-score 1.8; G2 cells, % of GMNN control 15.6; inactive.
With knock-down of RPL21P7 (ribosomal protein L21 pseudogene 7) #1, the record shows G2 robust z-score 1.52; G2 cells, % of GMNN control 13.7; inactive.
Knock-down of RPL21P7 (ribosomal protein L21 pseudogene 7) #2 resulted in: G2 robust z-score 0.977; G2 cells, % of GMNN control 9.84; inactive.
Against RPL21P7 (ribosomal protein L21 pseudogene 7) #3 the deposit lists G2 robust z-score 0.32; G2 cells, % of GMNN control 5.22; inactive.
Against ARF6 (ARF GTPase 6) #1 the deposit lists G2 robust z-score -0.204; G2 cells, % of GMNN control 1.53; inactive.
After knock-down of ARF6 (ARF GTPase 6) #2, the record shows G2 robust z-score -0.655; G2 cells, % of GMNN control -1.64; inactive.
After knock-down of ARF6 (ARF GTPase 6) #3, the screen gave G2 robust z-score -0.899; G2 cells, % of GMNN control -3.36; inactive.
With knock-down of TEX2 (testis expressed 2) #1, the record shows G2 robust z-score 0.605; G2 cells, % of GMNN control 7.22; inactive.
Silencing of TEX2 (testis expressed 2) #2 gave: G2 robust z-score 0.0818; G2 cells, % of GMNN control 3.54; inactive.
Depletion of TEX2 (testis expressed 2) #3 gave: G2 robust z-score -0.979; G2 cells, % of GMNN control -3.92; inactive.
Depletion of BAIAP2L2 (BAR/IMD domain containing adaptor protein 2 like 2) #1 gave: G2 robust z-score 2.51; G2 cells, % of GMNN control 20.6; inactive.
BAIAP2L2 (BAR/IMD domain containing adaptor protein 2 like 2) #2 scored G2 robust z-score 1.24; G2 cells, % of GMNN control 11.7; inactive.
With knock-down of BAIAP2L2 (BAR/IMD domain containing adaptor protein 2 like 2) #3, the record shows G2 robust z-score 2.58; G2 cells, % of GMNN control 21.1; inactive.
Silencing of MYOT (myotilin) #1 gave: G2 robust z-score 2.92; G2 cells, % of GMNN control 23.5; inactive.
With knock-down of MYOT (myotilin) #2, the screen gave G2 robust z-score -0.0255; G2 cells, % of GMNN control 2.79; inactive.
MYOT (myotilin) #3 gave G2 robust z-score -0.826; G2 cells, % of GMNN control -2.84; inactive.

No new results follow: 5 of the entries above.
AKR7A2 (aldo-keto reductase family 7 member A2) #3 — G2 robust z-score = 1.45; G2 cells, % of GMNN control = 13.2; call = inactive
C18orf63 (chromosome 18 open reading frame 63) #1 — G2 robust z-score = 0.769; G2 cells, % of GMNN control = 8.38; call = inactive
C18orf63 (chromosome 18 open reading frame 63) #2 — G2 robust z-score = 0.0462; G2 cells, % of GMNN control = 3.29; call = inactive
C18orf63 (chromosome 18 open reading frame 63) #3 — G2 robust z-score = 1.8; G2 cells, % of GMNN control = 15.6; call = inactive
RPL21P7 (ribosomal protein L21 pseudogene 7) #1 — G2 robust z-score = 1.52; G2 cells, % of GMNN control = 13.7; call = inactive
